Test results taken from the supplement of paper PMC12067093, “Discovery and optimisation of a covalent ligand for TRIM25 and its application to targeted protein ubiquitination” (Chemical Science, 2025).
The other results are listed elsewhere or left out.

Protein sequences, listed by entry. Tags and fused reporters are not part of them. Lines headed by an entry give the natural chain unless they say otherwise; changes in a name come on top.
UniProt P51659: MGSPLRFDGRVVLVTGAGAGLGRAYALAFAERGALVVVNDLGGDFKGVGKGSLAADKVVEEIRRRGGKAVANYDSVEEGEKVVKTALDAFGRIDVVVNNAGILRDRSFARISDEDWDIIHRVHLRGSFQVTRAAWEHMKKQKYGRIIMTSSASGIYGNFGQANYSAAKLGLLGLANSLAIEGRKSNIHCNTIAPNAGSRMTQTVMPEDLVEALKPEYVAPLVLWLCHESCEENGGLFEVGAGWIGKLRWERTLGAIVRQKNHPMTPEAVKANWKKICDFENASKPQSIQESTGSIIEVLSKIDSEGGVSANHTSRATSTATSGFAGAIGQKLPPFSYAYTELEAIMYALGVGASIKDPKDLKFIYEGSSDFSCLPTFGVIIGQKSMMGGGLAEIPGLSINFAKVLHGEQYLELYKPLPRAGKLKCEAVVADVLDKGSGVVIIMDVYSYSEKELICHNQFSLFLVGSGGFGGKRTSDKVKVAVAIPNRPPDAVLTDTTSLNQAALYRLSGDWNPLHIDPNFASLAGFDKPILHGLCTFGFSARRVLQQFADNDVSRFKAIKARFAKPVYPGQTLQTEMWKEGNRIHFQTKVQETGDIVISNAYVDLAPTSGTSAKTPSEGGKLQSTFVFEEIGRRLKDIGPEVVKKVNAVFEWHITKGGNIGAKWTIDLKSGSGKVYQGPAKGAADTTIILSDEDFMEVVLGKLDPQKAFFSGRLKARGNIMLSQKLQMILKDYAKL
UniProt Q9UPZ3: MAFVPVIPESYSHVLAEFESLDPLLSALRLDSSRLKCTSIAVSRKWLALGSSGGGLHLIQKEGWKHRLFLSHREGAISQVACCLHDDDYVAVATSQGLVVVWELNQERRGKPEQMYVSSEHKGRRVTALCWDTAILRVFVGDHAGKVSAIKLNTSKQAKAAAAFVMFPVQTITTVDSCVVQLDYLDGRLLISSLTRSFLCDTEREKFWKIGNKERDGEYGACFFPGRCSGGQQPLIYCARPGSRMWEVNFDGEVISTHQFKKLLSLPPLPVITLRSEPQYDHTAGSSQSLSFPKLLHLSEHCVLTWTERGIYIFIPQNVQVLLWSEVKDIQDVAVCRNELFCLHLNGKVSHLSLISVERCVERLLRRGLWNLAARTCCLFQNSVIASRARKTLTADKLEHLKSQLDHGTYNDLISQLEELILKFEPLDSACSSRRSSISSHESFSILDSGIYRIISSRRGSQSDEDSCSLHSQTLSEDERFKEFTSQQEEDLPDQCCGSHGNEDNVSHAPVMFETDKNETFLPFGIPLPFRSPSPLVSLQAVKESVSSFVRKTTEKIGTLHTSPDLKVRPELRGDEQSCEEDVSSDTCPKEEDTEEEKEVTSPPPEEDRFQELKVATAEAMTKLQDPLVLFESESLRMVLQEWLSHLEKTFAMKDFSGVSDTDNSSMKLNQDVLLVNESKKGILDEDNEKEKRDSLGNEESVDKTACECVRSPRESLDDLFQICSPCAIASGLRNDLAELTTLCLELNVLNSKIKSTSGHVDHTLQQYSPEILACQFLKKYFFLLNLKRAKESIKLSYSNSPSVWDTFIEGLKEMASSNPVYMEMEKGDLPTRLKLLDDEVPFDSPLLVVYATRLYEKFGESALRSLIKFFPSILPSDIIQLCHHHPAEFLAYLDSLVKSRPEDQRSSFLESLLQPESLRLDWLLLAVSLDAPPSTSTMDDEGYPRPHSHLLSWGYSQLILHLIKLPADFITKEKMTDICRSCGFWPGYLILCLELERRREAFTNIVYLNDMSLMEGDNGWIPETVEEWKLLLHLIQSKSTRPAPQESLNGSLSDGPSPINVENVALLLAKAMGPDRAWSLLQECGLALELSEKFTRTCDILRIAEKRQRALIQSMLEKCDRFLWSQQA
UniProt O60921: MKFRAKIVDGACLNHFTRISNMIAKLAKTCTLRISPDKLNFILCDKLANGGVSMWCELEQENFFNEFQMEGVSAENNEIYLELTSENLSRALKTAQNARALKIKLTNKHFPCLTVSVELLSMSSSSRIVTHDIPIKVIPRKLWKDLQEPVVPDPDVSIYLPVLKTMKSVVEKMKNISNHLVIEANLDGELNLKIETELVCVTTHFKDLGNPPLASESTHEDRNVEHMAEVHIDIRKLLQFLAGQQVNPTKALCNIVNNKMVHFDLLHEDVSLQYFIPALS
UniProt Q96EW2: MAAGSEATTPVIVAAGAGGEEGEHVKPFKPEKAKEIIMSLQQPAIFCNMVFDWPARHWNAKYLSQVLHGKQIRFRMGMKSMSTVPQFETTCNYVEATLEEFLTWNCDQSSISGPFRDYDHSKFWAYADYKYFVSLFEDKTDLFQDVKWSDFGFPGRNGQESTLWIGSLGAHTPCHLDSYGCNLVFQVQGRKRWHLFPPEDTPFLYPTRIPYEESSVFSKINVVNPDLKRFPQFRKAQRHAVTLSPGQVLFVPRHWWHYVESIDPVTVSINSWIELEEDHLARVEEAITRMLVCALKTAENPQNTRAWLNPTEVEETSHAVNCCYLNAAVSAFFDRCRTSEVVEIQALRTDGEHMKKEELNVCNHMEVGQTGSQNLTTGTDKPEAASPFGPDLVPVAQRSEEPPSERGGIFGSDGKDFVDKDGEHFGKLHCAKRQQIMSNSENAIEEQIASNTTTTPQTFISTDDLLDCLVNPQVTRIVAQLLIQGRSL
UniProt O43390: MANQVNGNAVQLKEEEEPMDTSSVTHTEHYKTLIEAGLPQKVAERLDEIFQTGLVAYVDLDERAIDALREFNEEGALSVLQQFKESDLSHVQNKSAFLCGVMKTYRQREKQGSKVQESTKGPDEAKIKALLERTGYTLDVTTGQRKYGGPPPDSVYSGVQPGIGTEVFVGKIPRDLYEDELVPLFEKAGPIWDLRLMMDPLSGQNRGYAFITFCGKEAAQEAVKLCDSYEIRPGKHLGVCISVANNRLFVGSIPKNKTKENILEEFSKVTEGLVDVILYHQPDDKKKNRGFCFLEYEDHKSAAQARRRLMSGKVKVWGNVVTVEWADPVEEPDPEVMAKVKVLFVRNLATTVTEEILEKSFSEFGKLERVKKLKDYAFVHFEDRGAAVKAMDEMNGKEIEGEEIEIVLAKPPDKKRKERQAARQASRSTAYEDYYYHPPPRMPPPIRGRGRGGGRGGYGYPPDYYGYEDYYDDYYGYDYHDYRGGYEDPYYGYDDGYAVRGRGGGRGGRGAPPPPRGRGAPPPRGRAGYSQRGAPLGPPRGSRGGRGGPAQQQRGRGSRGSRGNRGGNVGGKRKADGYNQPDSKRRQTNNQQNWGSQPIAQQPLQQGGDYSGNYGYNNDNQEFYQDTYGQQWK
UniProt P22626: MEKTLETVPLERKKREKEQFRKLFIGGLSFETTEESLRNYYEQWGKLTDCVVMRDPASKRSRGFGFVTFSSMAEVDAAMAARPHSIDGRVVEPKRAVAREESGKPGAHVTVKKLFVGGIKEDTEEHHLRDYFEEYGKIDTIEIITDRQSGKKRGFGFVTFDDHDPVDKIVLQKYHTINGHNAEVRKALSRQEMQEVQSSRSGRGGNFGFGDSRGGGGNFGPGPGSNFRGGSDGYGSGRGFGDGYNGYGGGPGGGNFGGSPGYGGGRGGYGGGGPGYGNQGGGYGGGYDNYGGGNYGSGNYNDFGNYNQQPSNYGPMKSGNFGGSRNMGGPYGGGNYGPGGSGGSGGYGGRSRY
UniProt Q00839, whole entry, looked up: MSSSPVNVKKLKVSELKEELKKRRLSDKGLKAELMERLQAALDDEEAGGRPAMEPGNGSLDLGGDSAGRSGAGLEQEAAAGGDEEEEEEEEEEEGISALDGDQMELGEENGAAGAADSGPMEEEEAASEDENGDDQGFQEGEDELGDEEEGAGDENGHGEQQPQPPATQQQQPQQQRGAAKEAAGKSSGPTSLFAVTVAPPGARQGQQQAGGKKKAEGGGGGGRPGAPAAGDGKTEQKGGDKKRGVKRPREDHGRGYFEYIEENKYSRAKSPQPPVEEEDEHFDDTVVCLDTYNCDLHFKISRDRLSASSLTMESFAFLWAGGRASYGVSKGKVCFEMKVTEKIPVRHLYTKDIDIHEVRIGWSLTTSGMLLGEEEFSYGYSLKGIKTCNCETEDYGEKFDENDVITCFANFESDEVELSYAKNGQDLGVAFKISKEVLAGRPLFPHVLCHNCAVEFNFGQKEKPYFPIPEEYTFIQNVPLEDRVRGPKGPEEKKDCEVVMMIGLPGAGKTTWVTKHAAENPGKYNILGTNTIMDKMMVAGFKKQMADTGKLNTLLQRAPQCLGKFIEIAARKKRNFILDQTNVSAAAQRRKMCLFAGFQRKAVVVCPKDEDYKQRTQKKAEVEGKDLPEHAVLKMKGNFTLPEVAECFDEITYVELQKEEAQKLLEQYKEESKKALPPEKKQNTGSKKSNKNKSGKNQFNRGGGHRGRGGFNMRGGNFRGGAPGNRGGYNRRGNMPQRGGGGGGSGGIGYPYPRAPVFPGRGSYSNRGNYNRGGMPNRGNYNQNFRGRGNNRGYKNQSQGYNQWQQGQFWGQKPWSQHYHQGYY
UniProt P38646: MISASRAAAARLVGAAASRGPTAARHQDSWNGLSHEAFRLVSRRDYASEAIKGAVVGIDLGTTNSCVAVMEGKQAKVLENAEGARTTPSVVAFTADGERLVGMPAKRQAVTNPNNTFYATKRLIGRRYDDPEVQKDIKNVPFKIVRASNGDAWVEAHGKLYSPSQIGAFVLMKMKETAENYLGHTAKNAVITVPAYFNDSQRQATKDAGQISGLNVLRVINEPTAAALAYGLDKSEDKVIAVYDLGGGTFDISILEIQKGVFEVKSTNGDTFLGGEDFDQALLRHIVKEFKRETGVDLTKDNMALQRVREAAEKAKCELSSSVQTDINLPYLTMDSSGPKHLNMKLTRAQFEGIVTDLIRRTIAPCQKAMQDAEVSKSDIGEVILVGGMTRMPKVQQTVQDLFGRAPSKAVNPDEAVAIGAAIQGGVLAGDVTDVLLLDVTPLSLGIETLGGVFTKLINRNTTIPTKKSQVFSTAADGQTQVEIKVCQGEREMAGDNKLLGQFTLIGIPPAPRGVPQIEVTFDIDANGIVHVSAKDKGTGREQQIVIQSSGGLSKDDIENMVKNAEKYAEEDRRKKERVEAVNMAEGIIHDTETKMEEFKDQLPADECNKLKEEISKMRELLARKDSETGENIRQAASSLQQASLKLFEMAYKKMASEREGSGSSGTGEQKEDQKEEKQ
UniProt Q969F9: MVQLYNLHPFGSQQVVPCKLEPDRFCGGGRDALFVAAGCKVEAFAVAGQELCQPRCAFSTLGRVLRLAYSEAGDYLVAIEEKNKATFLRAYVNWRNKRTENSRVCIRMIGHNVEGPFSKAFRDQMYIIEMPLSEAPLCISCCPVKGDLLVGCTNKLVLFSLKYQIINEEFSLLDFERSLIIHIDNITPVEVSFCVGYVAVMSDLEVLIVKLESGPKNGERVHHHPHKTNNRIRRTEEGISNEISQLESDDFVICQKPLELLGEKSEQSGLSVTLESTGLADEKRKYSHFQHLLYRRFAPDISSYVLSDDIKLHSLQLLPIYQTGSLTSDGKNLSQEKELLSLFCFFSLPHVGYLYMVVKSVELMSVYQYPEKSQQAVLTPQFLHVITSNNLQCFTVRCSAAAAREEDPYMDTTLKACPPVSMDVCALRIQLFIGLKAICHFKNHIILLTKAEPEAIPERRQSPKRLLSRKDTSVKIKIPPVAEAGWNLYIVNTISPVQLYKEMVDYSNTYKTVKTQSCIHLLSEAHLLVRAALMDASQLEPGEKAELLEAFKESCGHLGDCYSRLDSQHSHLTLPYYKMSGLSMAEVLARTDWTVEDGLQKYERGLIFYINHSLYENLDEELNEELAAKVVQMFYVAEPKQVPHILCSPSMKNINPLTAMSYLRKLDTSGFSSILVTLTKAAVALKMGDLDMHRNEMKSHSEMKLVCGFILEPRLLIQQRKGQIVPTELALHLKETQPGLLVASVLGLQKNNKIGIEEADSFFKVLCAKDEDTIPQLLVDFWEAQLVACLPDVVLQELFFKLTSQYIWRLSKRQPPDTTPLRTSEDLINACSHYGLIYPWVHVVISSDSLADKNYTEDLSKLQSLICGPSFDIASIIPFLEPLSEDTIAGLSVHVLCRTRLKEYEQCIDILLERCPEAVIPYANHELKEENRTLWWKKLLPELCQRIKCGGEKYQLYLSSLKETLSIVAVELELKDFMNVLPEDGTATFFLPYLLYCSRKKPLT
UniProt P51991: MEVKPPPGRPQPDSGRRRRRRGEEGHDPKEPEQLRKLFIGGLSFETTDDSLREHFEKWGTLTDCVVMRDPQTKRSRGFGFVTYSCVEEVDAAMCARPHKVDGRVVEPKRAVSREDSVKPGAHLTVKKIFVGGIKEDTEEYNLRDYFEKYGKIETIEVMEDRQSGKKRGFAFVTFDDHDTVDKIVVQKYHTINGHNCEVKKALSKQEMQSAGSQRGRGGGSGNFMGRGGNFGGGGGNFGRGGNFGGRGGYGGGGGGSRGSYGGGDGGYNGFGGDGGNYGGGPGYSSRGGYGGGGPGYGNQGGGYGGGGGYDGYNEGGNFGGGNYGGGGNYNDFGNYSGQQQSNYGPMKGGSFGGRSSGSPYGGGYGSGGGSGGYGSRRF

Compound: Cc1cc(ccc1-c1ccccc1)C(=O)N1CCCN(CC1)C(=O)CCl [compound 10]
Experiment: probe-labelled cysteine peptide fold change vs DMSO (competition) (log2 fold change); higher = less target engagement (more negative = stronger competition)
Settings: THP-1, incubation time: 4 h
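Note: competitive profiling in live THP-1 cells: cysteine peptides tagged with an iodoacetamide desthiobiotin (IA-DTB) probe, intensity after compound treatment relative to DMSO-treated cells.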

Target	probe-labelled cysteine peptide fold change (10 µM)	probe-labelled cysteine peptide fold change (50 µM)
HSD17B4_P51659_373_FIYEGSSDFSCLPTFGVIIGQK (UniProt P51659)	0.115	0.149
HPS5_Q9UPZ3_775_STSGHVDHTLQQYSPEILACQFLK (UniProt Q9UPZ3)	0.0829	0.02
HUS1_O60921_200_IETELVCVTTHFK (UniProt O60921)	0.254	0.172
HSPBAP1_Q96EW2_293_MLVCALK (UniProt Q96EW2)	0.297	0.184
HNRNPR_O43390_99_SAFLCGVMK (UniProt O43390)	0.107	-0.182
HNRNPH2_P55795_290_YGDGGSSFQSTTGHCVHMR (UniProt P55795)	0.0204	-0.0217
HNRNPA2B1_P22626_50_LTDCVVMRDPASKR (UniProt P22626)	-0.0144	-0.424
HNRNPU_Q00839_389_TCNCETEDYGEK (UniProt Q00839)	0.16	0.644
HNRNPU_Q00839_594_KMCLFAGFQR (UniProt Q00839)	-0.234	-0.822
HSPA9_P38646_608_DQLPADECNK (UniProt P38646)	0.0861	0.278
HPS3_Q969F9_647_QVPHILCSPSMK (UniProt Q969F9)	0.0421	-0.246
HSP90AA1_P07900_374_VFIMDNCEELIPEYLNFIR (UniProt P07900)	0.07	0.391
HPCAL1_P37235_38_DCPTGHLTVDEFKK (UniProt P37235)	0.0704	0.00972
HNRNPA3_P51991_64_WGTLTDCVVMR (UniProt P51991)	-0.0374	0.0318
